According to article PMC10326026:
Results are given in words; binding and its absence hold for the method and conditions named. In cells and extracts the contact can be indirect. Some binding calls cover weakened binding; strength is not graded here. For some of these results: Tags and fused reporters may be left off the sequences shown.

Chains of the proteins cited; added tags and fusions are not shown.
UniProt P51784: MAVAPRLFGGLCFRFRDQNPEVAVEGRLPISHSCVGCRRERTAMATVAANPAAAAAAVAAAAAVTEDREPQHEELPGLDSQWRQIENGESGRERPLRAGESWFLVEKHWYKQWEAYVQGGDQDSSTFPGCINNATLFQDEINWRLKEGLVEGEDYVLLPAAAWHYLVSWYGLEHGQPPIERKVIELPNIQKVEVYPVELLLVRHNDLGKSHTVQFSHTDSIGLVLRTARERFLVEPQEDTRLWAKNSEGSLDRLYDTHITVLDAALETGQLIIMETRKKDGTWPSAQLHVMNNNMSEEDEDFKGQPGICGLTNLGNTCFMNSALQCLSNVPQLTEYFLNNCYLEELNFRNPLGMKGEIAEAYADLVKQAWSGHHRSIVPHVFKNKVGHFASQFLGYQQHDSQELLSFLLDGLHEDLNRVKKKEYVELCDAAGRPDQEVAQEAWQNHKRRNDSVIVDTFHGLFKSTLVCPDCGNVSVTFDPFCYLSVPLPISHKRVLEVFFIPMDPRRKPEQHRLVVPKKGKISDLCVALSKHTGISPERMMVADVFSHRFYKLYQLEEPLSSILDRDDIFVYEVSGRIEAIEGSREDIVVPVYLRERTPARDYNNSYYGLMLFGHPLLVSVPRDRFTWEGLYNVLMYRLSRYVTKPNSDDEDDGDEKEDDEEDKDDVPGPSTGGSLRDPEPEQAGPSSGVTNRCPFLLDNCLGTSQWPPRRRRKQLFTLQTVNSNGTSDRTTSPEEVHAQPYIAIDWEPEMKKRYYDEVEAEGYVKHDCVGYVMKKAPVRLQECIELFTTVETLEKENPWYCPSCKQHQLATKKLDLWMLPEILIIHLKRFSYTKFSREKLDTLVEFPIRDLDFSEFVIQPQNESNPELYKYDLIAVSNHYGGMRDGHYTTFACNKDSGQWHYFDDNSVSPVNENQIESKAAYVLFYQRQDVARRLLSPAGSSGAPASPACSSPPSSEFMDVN

Assays:
[1] = target: T1, GST-LSH (lymphoid-specific helicase) (human (cDNA from GES-1 cells)) (UniProt Q9NRZ9); experiment: pull-down; GST-LSH on Glutathione Sepharose 4B resins incubated with in vitro translated Flag-tagged USP11; 50 mM Tris-HCl pH 7.4, 150 mM NaCl, 0.2% Triton X-100, 10% glycerol, 1 mM DTT; 4 °C overnight; WB; only the target purified
T1 sequence: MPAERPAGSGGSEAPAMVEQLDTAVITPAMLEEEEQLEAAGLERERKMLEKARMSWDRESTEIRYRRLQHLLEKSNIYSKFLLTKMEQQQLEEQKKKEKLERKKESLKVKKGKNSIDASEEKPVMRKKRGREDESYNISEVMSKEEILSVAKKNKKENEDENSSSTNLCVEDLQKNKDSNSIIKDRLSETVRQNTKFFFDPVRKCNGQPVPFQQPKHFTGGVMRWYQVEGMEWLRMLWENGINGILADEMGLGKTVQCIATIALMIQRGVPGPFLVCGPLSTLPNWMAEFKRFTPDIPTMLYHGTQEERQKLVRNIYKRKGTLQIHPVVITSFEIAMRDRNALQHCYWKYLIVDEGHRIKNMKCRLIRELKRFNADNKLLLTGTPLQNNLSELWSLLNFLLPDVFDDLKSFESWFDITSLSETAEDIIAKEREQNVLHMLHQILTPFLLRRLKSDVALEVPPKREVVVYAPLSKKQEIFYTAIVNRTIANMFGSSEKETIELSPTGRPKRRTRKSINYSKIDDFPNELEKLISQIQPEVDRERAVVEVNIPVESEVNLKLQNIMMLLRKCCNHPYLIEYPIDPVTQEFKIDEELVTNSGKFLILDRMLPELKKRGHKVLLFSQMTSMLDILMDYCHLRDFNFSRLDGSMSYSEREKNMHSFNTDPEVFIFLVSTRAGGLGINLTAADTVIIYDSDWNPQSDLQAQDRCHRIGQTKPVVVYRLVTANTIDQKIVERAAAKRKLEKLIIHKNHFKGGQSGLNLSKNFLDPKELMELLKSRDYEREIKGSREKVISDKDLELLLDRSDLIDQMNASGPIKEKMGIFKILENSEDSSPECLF

[2] = target: T2, Flag-LSH (lymphoid-specific helicase), expressed in HEK293T cells (human (cDNA from GES-1 cells)) (UniProt Q9NRZ9); experiment: co-IP; Flag-LSH and MYC-USP11 in HEK293T cells; MYC-IP and Flag-IP; IP lysis buffer 50 mM Tris-HCl pH 7.4, 150 mM NaCl, 1 mM EDTA, 0.3% NP-40; protein A/G agarose, 4 °C, 6 h; WB
T2 sequence: T1 sequence

[3] = target: T3, lymphoid-specific helicase (LSH), endogenous in HCT116 cells (human (endogenous in HCT116)) (UniProt Q9NRZ9); experiment: co-IP; endogenous proteins; cytoplasmic and nuclear extracts fractionated from HCT116 cells; IP with USP11 or LSH antibody; WB
T3 sequence: T1 sequence

[4] = target: T3, lymphoid-specific helicase (LSH), endogenous in HCT116 cells (human (endogenous in HCT116)); experiment: co-IP; endogenous proteins in HCT116 cells; IP with LSH antibody after DMSO or erastin (20 µM) for 24 h, and IP with USP11 antibody after erastin (20 µM) for 0, 4, 8 and 12 h; WB

Q: How did the binding [1] turn out when “Flag-tagged USP11 (ubiquitin-specific protease 11), in vitro translated (from UniProt P51784 1-963) (enzyme)” was run?
A: The binding was “binds”.

Q: How did the binding [2] turn out when “MYC-USP11 (ubiquitin-specific protease 11), expressed in HEK293T cells (from UniProt P51784 1-963) (enzyme)” was run?
A: The binding was “binds”.

Q: With “ubiquitin-specific protease 11 (USP11), endogenous in HCT116 cells (from UniProt P51784 1-963) (enzyme)” as the substance, how does the binding [3] read?
A: Its binding is “binds”.

Q: What about the binding [4] of the same substance?
A: Its binding is “binds”.
